Some entries share one result that the patent states for a list of compounds. At least one structure is not confirmed: it was looked up by name or label, or the drawing left a doubt.
Assay: toxicity / lethal concentration LC50
Settings: concluded from data available for commercial hydrofluoro ethers of higher molecular weight

Question: With `FC(F)(F)COC(F)(F)F` [2,2,2-trifluoroethyl-trifluoromethyl ether] as the compound, how does the “lethal concentration LC 50” value read?
Answer: The value was “higher than 10,000 ppm”.

From US9172221B2, “Converter building” (ABB Technology AG, priority 2011, dated 2015)
